Source: the supplement of paper PMC10849652
This is one part of the list.

Protein sequences, listed by entry. Tags and fused reporters are not part of them. Lines headed by an entry give the natural chain unless they say otherwise; changes in a name come on top.
UniProt Q9HCE1: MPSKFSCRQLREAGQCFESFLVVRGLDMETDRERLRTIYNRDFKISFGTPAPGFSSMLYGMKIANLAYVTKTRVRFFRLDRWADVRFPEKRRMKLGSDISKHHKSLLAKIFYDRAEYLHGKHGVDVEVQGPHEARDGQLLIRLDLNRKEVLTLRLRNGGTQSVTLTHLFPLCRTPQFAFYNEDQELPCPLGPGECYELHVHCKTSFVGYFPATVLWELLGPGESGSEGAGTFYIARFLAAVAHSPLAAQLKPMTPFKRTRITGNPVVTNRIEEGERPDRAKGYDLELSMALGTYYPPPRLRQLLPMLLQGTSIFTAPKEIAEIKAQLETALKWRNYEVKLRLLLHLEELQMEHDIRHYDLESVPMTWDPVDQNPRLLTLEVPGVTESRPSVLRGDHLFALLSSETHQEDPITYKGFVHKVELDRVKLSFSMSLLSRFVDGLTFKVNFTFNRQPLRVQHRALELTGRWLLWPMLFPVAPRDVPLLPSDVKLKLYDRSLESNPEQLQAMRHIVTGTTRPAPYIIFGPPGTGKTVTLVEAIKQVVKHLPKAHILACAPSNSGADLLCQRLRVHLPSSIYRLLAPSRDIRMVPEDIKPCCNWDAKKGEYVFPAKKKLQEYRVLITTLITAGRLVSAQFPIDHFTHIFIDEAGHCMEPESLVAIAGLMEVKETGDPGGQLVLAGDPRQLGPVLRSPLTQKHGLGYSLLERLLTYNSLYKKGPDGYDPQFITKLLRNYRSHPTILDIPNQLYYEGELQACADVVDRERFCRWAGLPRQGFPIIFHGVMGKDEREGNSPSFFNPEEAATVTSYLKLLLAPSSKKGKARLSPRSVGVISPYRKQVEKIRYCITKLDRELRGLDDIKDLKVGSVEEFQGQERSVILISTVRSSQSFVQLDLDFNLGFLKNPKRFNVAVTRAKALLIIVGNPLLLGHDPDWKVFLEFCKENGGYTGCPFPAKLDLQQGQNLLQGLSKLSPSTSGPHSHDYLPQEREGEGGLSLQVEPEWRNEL
UniProt Q99583: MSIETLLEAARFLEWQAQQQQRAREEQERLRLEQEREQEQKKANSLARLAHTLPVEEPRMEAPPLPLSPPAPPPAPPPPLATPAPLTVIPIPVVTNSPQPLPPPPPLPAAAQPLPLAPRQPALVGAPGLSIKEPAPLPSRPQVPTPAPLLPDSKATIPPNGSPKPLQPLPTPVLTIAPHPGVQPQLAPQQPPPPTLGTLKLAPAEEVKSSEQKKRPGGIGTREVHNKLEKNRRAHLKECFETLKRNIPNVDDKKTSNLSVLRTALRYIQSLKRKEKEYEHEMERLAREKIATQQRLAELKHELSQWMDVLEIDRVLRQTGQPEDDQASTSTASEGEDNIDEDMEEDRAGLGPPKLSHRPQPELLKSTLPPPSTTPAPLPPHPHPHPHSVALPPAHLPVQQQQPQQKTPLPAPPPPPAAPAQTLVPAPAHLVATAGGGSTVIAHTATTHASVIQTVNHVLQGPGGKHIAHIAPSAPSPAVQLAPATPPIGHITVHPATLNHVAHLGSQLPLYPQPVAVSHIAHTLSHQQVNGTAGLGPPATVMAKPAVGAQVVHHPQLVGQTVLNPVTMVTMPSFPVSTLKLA
UniProt O75030: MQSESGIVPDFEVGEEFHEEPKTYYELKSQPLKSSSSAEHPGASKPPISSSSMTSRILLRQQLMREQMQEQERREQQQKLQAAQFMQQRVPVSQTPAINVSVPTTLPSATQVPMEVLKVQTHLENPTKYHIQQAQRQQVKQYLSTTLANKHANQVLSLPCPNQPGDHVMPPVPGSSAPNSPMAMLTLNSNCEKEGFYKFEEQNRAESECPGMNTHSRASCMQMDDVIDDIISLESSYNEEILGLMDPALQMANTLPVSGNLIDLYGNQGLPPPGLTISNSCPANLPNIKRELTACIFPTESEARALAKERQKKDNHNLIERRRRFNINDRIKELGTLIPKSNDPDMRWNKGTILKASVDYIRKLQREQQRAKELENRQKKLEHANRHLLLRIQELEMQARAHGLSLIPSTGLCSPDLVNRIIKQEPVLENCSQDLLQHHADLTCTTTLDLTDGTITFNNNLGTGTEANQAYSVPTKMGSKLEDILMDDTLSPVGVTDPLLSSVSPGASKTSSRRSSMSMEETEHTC
UniProt Q8N4C8: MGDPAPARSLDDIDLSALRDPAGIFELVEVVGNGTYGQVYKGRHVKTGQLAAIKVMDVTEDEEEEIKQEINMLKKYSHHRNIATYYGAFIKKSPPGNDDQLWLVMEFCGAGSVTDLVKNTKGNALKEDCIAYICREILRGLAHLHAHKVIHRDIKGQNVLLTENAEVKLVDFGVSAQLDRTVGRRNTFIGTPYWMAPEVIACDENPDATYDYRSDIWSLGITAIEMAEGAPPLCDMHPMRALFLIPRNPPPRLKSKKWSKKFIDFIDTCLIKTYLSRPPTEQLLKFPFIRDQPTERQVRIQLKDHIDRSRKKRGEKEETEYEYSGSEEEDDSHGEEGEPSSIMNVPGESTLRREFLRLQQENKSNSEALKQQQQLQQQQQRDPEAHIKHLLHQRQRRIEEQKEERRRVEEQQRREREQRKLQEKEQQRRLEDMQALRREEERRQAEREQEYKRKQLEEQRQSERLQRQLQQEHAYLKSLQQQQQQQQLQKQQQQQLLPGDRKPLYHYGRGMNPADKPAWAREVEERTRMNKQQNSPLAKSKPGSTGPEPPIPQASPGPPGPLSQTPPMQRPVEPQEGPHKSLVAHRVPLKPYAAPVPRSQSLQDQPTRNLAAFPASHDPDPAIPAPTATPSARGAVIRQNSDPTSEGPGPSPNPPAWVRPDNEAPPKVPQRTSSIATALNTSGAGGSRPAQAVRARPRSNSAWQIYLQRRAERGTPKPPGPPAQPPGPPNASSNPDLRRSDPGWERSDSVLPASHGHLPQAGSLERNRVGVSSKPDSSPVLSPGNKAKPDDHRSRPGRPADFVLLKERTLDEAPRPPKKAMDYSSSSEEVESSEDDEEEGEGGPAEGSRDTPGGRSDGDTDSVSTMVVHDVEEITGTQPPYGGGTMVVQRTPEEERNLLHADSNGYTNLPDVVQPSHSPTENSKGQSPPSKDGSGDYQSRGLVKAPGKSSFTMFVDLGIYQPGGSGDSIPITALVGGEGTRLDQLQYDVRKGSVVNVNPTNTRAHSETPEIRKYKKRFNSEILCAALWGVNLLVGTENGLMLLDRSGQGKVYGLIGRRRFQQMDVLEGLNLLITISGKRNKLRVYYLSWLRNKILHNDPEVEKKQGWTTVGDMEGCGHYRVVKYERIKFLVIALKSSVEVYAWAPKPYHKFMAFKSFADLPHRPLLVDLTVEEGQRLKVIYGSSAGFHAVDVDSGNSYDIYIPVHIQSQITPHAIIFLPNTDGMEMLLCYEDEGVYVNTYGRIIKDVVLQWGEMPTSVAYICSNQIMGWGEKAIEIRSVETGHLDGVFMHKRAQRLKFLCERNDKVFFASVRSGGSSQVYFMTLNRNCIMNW
UniProt Q13724: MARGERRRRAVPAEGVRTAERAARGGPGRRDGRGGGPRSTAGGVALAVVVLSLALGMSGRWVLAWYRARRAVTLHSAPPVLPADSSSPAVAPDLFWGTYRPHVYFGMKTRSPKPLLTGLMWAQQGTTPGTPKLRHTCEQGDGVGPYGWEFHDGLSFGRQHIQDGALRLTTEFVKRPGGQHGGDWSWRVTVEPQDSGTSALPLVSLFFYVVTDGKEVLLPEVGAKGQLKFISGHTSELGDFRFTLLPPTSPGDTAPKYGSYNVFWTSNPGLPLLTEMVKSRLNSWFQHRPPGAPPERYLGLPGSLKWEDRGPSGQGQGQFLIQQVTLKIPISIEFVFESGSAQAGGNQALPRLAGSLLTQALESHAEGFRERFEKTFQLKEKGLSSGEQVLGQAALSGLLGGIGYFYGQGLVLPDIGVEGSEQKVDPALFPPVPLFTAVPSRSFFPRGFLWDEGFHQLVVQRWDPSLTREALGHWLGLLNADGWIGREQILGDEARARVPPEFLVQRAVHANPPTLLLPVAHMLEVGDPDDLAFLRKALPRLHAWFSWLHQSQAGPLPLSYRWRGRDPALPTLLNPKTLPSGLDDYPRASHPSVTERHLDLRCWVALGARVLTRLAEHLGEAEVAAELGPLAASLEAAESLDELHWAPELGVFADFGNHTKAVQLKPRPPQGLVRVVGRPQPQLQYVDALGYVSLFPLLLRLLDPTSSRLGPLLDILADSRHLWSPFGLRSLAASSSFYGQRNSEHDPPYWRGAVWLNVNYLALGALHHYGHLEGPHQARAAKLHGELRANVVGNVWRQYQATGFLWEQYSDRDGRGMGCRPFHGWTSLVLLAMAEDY
UniProt Q6UWV2: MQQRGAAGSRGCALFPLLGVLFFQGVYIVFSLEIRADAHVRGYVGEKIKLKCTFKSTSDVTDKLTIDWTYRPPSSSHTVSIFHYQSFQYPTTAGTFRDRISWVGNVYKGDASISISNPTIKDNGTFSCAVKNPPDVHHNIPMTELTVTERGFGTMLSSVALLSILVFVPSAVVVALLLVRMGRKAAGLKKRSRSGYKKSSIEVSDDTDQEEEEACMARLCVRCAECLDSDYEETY
UniProt O94851, whole entry, looked up: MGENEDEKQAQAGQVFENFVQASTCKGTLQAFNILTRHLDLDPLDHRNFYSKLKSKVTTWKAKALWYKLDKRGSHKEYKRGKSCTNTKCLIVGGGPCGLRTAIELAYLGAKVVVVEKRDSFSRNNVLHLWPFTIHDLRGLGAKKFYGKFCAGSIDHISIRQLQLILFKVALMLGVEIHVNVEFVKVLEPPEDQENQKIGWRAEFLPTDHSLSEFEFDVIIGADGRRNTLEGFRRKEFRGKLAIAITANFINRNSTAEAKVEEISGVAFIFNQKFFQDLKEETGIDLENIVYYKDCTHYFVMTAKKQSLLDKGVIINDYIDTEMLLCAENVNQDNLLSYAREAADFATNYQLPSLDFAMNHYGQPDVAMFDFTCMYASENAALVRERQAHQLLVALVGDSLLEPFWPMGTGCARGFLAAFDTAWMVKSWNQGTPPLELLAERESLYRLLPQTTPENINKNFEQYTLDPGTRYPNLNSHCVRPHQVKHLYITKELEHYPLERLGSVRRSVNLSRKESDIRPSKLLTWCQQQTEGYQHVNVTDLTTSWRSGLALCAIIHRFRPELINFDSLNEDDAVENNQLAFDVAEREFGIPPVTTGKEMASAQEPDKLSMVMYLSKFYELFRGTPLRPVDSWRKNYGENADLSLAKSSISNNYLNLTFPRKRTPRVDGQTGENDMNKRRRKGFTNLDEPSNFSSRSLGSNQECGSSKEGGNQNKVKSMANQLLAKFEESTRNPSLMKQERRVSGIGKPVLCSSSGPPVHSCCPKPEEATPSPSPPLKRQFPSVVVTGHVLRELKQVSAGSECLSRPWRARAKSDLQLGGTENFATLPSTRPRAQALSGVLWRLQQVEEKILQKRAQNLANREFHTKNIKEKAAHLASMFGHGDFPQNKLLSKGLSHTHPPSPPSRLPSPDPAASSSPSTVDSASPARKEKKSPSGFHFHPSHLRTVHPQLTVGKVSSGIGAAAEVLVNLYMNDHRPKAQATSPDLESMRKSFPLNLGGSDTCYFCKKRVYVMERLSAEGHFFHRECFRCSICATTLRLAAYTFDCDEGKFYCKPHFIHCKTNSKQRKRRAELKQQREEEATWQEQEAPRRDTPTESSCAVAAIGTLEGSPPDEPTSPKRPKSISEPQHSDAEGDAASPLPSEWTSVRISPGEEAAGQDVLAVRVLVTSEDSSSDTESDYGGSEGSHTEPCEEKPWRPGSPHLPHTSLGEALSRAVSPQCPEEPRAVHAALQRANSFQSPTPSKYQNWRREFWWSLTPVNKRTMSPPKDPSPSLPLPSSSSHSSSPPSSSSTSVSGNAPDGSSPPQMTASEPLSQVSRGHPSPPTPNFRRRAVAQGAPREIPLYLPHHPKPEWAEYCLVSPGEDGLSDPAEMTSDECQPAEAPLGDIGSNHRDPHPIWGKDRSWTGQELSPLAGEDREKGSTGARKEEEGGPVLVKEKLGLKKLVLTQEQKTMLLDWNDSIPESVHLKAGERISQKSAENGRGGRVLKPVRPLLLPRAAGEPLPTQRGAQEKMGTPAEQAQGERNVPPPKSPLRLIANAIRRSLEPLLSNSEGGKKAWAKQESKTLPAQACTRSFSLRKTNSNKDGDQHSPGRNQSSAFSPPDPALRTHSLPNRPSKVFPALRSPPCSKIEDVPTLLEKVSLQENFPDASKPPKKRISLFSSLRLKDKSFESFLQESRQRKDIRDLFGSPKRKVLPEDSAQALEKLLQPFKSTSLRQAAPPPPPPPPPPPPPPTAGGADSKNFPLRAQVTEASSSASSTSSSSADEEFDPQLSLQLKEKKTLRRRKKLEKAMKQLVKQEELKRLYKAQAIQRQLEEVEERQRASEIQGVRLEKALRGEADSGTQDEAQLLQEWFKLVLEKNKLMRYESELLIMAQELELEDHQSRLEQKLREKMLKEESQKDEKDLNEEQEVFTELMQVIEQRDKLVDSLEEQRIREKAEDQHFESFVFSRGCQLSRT

How the values were obtained:
Assay in all cases: log2 fold change, soluble protein after heating vs DMSO (PISA); higher = thermal stabilisation; K562 lysate, 10 uM; active = over 0.2 and 3.5 SD of the protein, either way, in both replicates (recomputed)
alvocidib = compound: CN1CC[C@H](c2c(O)cc(O)c3c(=O)cc(-c4ccccc4Cl)oc23)[C@H](O)C1 [alvocidib]
Method in brief: (§1)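 Values give the log-two fold change in thermal stability against solvent controls, from duplicates. Crude K562 extract at 1 mg/mL protein, made by dounce homogenisation in PBS pH 7.4 with 1 mM MgCl2, was treated with 10 μM compound for 30 min. After 3 min heating across 48°C-58°C, aliquots were pooled, adjusted to 0.5% NP-40 at 4°C and centrifuged at 21,000xg for 90 min. The supernatant was measured by TMTpro 16plex LC-MS/MS with channel sums equalised.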

Tubastatin A = compound: CN1CCc2c(c3ccccc3n2Cc2ccc(C(=O)NO)cc2)C1 [Tubastatin A]
Method in brief: as §1

[1] = compound: CNC(=O)C1=CC=CC=C1NC2=NC(=NC=C2Cl)NC3=C(C=C(C=C3)N4CCOCC4)OC
Method in brief: as §1

defactinib = compound: CNC(=O)c1ccc(Nc2ncc(C(F)(F)F)c(NCc3nccnc3N(C)S(C)(=O)=O)n2)cc1 [defactinib]
Method in brief: as §1

[2] = compound: CNc1nc(-c2ccc3c(N)n[nH]c3c2)cc(N2C[C@@H](C(=O)NC3CCCCC3)CC[C@H]2C)n1
Method in brief: as §1

encorafenib = compound: COC(=O)N[C@@H](C)CNc1nccc(-c2cn(C(C)C)nc2-c2cc(Cl)cc(NS(C)(=O)=O)c2F)n1 [encorafenib]
Method in brief: as §1

[3] = compound: COC(=O)[C@H](CCSC)NC(=O)C1=C(C=C(C=C1)NC[C@H](CS)N)C2=CC=CC=C2
Method in brief: as §1

alisertib = compound: COc1cc(Nc2ncc3c(n2)-c2ccc(Cl)cc2C(c2c(F)cccc2OC)=NC3)ccc1C(=O)O [alisertib]
Method in brief: as §1

[4] = compound: COc1cc2nc(-c3cc(F)ccc3O)nc(N[C@@H]3CNC[C@H]3C(C)(C)O)c2cc1OC
Method in brief: as §1

gefitinib = compound: COc1cc2ncnc(Nc3ccc(F)c(Cl)c3)c2cc1OCCCN1CCOCC1 [gefitinib]
Method in brief: as §1

lapatinib = compound: CS(=O)(=O)CCNCc1ccc(-c2ccc3ncnc(Nc4ccc(OCc5cccc(F)c5)c(Cl)c4)c3c2)o1 [lapatinib]
Method in brief: as §1

pictilisib = compound: CS(=O)(=O)N1CCN(Cc2cc3nc(-c4cccc5[nH]ncc45)nc(N4CCOCC4)c3s2)CC1 [pictilisib]
Method in brief: as §1

crizotinib = compound: C[C@@H](Oc1cc(-c2cnn(C3CCNCC3)c2)cnc1N)c1c(Cl)ccc(F)c1Cl [crizotinib]
Method in brief: as §1

[5] = compound: C[C@H](C1=CC=C(C=C1)C(=O)NC2=C3C=CNC3=NC=C2)N
Method in brief: as §1

duvelisib = compound: C[C@H](Nc1ncnc2nc[nH]c12)c1cc2cccc(Cl)c2c(=O)n1-c1ccccc1 [duvelisib]
Method in brief: as §1

gandotinib = compound: Cc1cc(Nc2cc(CN3CCOCC3)c3nc(C)c(Cc4ccc(Cl)cc4F)n3n2)n[nH]1 [gandotinib]
Method in brief: as §1

tozasertib = compound: Cc1cc(Nc2cc(N3CCN(C)CC3)nc(Sc3ccc(NC(=O)C4CC4)cc3)n2)n[nH]1 [tozasertib]
Method in brief: as §1

doramapimod = compound: Cc1ccc(-n2nc(C(C)(C)C)cc2NC(=O)Nc2ccc(OCCN3CCOCC3)c3ccccc23)cc1 [doramapimod]
Method in brief: as §1

bafetinib = compound: Cc1ccc(NC(=O)c2ccc(CN3CC[C@H](N(C)C)C3)c(C(F)(F)F)c2)cc1Nc1nccc(-c2cncnc2)n1 [bafetinib]
Method in brief: as §1

[6] = compound: Cc1cccc(CC(=O)N2CCc3c2ccc(-c2cn(C)c4ncnc(N)c24)c3F)n1
Method in brief: as §1

Measured: log2 fold change

MOV10 (UniProt Q9HCE1)
inactive: alvocidib 0.002 | Tubastatin A -0.014 | [1] -0.011 | defactinib -0.006 | [2] -0.003 | encorafenib 0.004 | [3] -0.018 | alisertib 0.021 | [4] 0.002 | gefitinib -0.003 | lapatinib -0.01 | pictilisib -0.011 | crizotinib -0.012 | [5] -0.005 | duvelisib 0.001 | gandotinib 0.005 | tozasertib -0.03 | doramapimod 0.006 | bafetinib -0.033 | [6] 0.009

MNT (UniProt Q99583)
inactive: alvocidib 0.014 | Tubastatin A 0.023 | [1] -0.057 | defactinib -0.002 | [2] 0.136 | encorafenib 0.007 | [3] -0.075 | [4] -0.001 | lapatinib 0.035 | crizotinib -0.017 | [5] -0.091 | duvelisib -0.06 | gandotinib -0.08 | tozasertib -0.124 | doramapimod -0.039 | [6] 0.093

MKRN1 (UniProt Q9UHC7)
inactive: alvocidib -0.048 | Tubastatin A 0.012 | [1] 0.018 | defactinib 0.012 | [2] -0.057 | encorafenib -0.006 | [3] 0 | alisertib 0.039 | [4] -0.011 | gefitinib 0.063 | lapatinib -0.025 | pictilisib 0.017 | crizotinib -0.016 | [5] -0.035 | duvelisib 0.024 | gandotinib -0.023 | tozasertib -0.027 | doramapimod 0.04 | bafetinib -0.043 | [6] 0.014

MPP5 (UniProt Q8N3R9)
inactive: alvocidib 0.066 | Tubastatin A -0.08 | [1] -0.051 | defactinib 0.034 | [2] 0.045 | encorafenib 0.073 | [3] 0.114 | alisertib -0.217 | gefitinib -0.139 | pictilisib -0.091 | crizotinib -0.028 | [5] -0.003 | duvelisib -0.017 | gandotinib 0.01 | tozasertib -0.033 | doramapimod 0.115 | bafetinib -0.043 | [6] 0.099

MITF (UniProt O75030)
inactive: alvocidib -0.008 | Tubastatin A -0.034 | [1] 0 | defactinib -0.031 | [2] 0.083 | encorafenib 0.01 | [3] -0.078 | crizotinib -0.046 | [5] 0.091 | duvelisib -0.042 | gandotinib -0.008 | tozasertib -0.056 | doramapimod 0.03 | [6] -0.049

Fetched one by one from the entries so far, two records:
MITF (UniProt O75030)
inactive: alvocidib -0.008 | Tubastatin A -0.034 | [1] 0 | defactinib -0.031 | [2] 0.083 | encorafenib 0.01 | [3] -0.078 | crizotinib -0.046 | [5] 0.091 | duvelisib -0.042 | gandotinib -0.008 | tozasertib -0.056 | doramapimod 0.03 | [6] -0.049

MPP5 (UniProt Q8N3R9)
inactive: alvocidib 0.066 | Tubastatin A -0.08 | [1] -0.051 | defactinib 0.034 | [2] 0.045 | encorafenib 0.073 | [3] 0.114 | alisertib -0.217 | gefitinib -0.139 | pictilisib -0.091 | crizotinib -0.028 | [5] -0.003 | duvelisib -0.017 | gandotinib 0.01 | tozasertib -0.033 | doramapimod 0.115 | bafetinib -0.043 | [6] 0.099

Carrying on:

MGAT2 (UniProt Q10469)
inactive: alvocidib 0.01 | Tubastatin A 0.059 | [1] 0.014 | defactinib 0.018 | [2] 0.092 | encorafenib 0.016 | [3] -0.008 | alisertib 0.041 | [4] -0.068 | gefitinib -0.059 | lapatinib -0.012 | pictilisib -0.047 | crizotinib 0.017 | [5] -0.05 | duvelisib -0.038 | gandotinib 0.03 | tozasertib 0.12 | doramapimod 0.004 | bafetinib -0.094 | [6] 0.05

MINK1 (UniProt Q8N4C8)
inactive: alvocidib -0.049 | Tubastatin A -0.137 | [1] 0.055 | defactinib 0.025 | [2] 0.109 | encorafenib -0.133 | [3] 0.022 | alisertib 0.051 | [4] -0.003 | lapatinib -0.084 | pictilisib -0.02 | crizotinib -0.149 | [5] 0.271 | duvelisib 0.026 | gandotinib -0.102 | tozasertib 0.014 | doramapimod 0.24 | bafetinib -0.158 | [6] 0.249

MOGS (UniProt Q13724)
inactive: alvocidib 0.012 | Tubastatin A 0.071 | [1] -0.018 | defactinib 0.03 | [2] -0.012 | encorafenib 0.046 | [3] -0.017 | alisertib 0.035 | [4] -0.005 | gefitinib -0.025 | lapatinib -0.047 | pictilisib -0.031 | crizotinib -0.01 | [5] 0.036 | duvelisib -0.021 | gandotinib -0.043 | tozasertib 0 | doramapimod 0.034 | bafetinib -0.048 | [6] 0.03

MRPL18 (UniProt Q9H0U6)
inactive: alvocidib -0.093 | Tubastatin A -0.149 | defactinib -0.02 | [2] -0.174 | encorafenib 0.001 | [3] 0.062 | alisertib -0.06 | [4] -0.025 | gefitinib 0.067 | lapatinib 0.015 | crizotinib -0.023 | [5] 0.045 | duvelisib 0.093 | gandotinib -0.1 | tozasertib 0.062 | doramapimod 0.033 | [6] 0.083

MPHOSPH9 (UniProt Q99550)
inactive: alvocidib -0.596 | [1] -0.06 | defactinib 0.15 | encorafenib 0.179 | [3] -0.129 | pictilisib -0.318 | crizotinib -0.062 | [5] 0.221 | gandotinib -0.159 | tozasertib 0.031 | doramapimod 0.03 | bafetinib 0.088 | [6] -0.213

MPZL3 (UniProt Q6UWV2)
inactive: Tubastatin A -0.03

MICAL2 (UniProt O94851)
inactive: alvocidib -0.045 | Tubastatin A 0 | [1] 0.093 | defactinib 0.012 | [2] 0 | alisertib 0.072 | [4] 0.028 | gefitinib -0.053 | lapatinib -0.355 | pictilisib -0.116 | crizotinib -0.04 | [5] 0.005 | duvelisib 0.039 | gandotinib 0.022 | doramapimod 0.067 | bafetinib -0.75 | [6] 0.126
